Results are given in words; binding and its absence hold for the method and conditions named. Binding seen in cells or lysates may run through a third protein. Here binding means that the protein was enriched with, or labelled near, the bait; the list need not be complete.
T1: CCDC88B (mouse (endogenous in thymus, BI-141 T cells and BMDCs)) (UniProt Q4QRL3)
T1 sequence: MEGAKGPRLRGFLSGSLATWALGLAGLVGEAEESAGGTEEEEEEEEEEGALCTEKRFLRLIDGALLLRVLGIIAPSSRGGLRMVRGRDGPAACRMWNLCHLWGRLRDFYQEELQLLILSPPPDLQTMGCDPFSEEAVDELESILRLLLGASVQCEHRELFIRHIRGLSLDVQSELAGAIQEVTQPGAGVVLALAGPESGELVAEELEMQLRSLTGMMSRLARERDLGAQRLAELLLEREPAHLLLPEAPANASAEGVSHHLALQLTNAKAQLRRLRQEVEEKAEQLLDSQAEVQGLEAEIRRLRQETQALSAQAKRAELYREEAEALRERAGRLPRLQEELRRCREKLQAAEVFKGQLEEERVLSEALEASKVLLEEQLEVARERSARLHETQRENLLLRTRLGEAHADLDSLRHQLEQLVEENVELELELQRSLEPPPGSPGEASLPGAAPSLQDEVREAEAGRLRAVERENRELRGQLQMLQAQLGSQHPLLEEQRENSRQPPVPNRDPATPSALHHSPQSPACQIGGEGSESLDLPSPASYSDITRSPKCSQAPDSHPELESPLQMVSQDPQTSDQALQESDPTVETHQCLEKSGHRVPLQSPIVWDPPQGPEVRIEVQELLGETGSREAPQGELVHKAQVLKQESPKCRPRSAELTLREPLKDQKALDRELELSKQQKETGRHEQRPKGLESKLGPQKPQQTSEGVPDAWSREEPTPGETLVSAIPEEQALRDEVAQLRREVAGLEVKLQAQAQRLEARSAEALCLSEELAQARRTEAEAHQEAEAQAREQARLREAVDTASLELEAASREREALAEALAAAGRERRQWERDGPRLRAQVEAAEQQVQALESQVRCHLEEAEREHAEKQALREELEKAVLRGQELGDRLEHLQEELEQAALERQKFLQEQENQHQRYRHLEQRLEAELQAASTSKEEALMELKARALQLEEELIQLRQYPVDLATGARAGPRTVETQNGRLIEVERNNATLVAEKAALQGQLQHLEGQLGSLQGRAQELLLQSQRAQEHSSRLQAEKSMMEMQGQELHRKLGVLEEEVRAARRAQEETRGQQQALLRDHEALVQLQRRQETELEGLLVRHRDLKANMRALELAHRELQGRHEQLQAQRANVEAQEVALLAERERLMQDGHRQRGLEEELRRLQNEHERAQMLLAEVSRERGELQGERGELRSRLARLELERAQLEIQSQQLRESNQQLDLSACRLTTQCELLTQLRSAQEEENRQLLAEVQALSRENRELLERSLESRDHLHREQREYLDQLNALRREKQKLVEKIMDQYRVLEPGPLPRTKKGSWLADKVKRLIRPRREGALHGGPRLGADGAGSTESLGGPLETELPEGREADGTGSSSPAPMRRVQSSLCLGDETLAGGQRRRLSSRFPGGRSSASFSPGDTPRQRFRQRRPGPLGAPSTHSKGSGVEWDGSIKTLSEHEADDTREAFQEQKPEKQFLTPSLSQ


Experiments:
[1] = target: T1, CCDC88B (mouse (endogenous in thymus, BI-141 T cells and BMDCs)); assay: affinity purification with mass spectrometry; anti-CCDC88B anti-serum on Dynabeads M270 Epoxy; 200 mg cryo-milled mouse thymocytes; 20 mM HEPES pH 7.4, 0.5% Triton X-100, 200 mM NaCl; SDS-PAGE, nine Sypro-stained bands excised, LC-MS/MS
[2] = target: T1, CCDC88B (mouse (endogenous in thymus, BI-141 T cells and BMDCs)); assay: affinity purification with mass spectrometry; anti-CCDC88B co-immunoprecipitation from cryo-milled BI-141 T cells and mouse thymocytes, three lysis buffers, in triplicate, label-free quantitative LC-MS/MS, hits filtered and scored

Row | binding [1] | binding [2] | Binder
1 | binds |  | Rho/Rac Guanine Nucleotide Exchange Factor 2 (ARHGEF2) (protein, UniProt Q60875 1-985) MSRIESLTRARIDRSKEQATKTREKEKMKEAKDARYTNGHLFTTISVSGMTMCYACNKSITAKEALICPTCNVTIHNRCKDTLANCTKVKQKQQKAALLRNNTALQSVSLRSKTTTRERPTSAIYPSDSFRQSLLGSRRGLSSLSLAKSVSTTNIAGHFNDESPLGLRQILSQSTDSLNMRNRTLSVESLIDEGVEVFYNELMSDFEMDEKDFEADSWSLAVDSSFLQQHKKEVMKKQDVIYELIQTELHHVRTLKIMTRLFRTGMLEELQMEPEVVQGLFPCVDELSDIHTRFLNQLLERRRQALCPGSTRNFVIHRLGDLLISQFSGSNAEQMRKTYSEFCSRHTKALKLYKELYARDKRFQQFIRKMTRSAVLKRHGVQECILLVTQRITKYPVLINRILQNSHGVEEEYQDLASALGLVKELLSNVDQDVHELEKEARLQEIYNRMDPRAQTPVPGKGPFGRDELLRRKLIHEGCLLWKTATGRFKDVLLLLMTDVLVFLQEKDQKYIFTSLDKPSVVSLQNLIVRDIANQAKGMFLISSGPPEMYEVHAASRDDRTTWIRVIQQSVRLCPSREDFPLIETEDKAYLRRIKTKLQQKNQALVELLQKNVELFAEMVHFQALKAGFVGMPPPALPRGLFRLESFESLRGERLLKDALREVEGLKDLLLGPCVDLPMTSREPALPLDSDSGSCPGVTANGEARTFNGSIELCRADSDSSQKDRNGNQLRSPQEEVLQPLINLYGLLHGLQAVVVQQERLMEALFPEGPERWEKLSRANSRDGEAGRAAVASVTPEKQATELALLQRQHTLLQEELRRCQRLGEERATEAGSLEARLRESEQARALLEREAEEIRRQLAALGQNEPLPAEAPWARRPLDPRRRSLPAGDALYLSFNPPQPSRGHDRLDLPVTVRSLHRPFDDREAQELGSPEDRLQDSSDPDTGSEEEVSSRLSPPHSPRDFTRMQDIPEETESRDGEPTASES
2 | binds |  | Nucleoporin 160 (NUP160) (protein, UniProt Q9Z0W3 1-1402) MAAAGSLERSFVELSGAERERPRHFREFTVCDIGTASAAFGTVKYSESAGGFYYVESGKLFSITRNRFIHWKTSGDTLELVEESLDLNLLNNAVRLKFQNYNILPGGVHVSETQNHVIILILTNQTVHRLILPHPSRMYRSELVTESQMQSIFTDIGKVDFRDPCNSQLIPSVPGLSPGSTTSAAWLSSDGEALFALPSASGGIFVLKLPPYDVPGIASVVELKQSSVMQRLLTGWMPTAIRGDHGPSDRALSLAVHCVEHDAFIFALCQDHKLRMWSYKDQMCLMVADMLEYVPVNKDLRLTAGTGHKLRLAYSPSMGLYLGIYMHAPKRGQFCVFQLVSTENNRYSLDHISSLFTSQETLVDFALTSTDIWALWHDAENQTIVKYINFEHNVAGQWNPVFMQPLPEEEIVIRDDQDPREMYLRSLFTPGHFINAALCKALQIFCRGTERNLDLSWNELKKEITLAVENELQGSVTEYEFSQDEFRTLQQEFWCKFYACVLQYQEALSHPLALHLNPVTNMVCLLKKGYLSFLVPSSLVDHLYLLPDEHLLTEDETTISDDADVARDVLCLIKCLRMIGESVTMDMAVLMETSCYNLQSPEKAAEHILEDLITIDVENVMEDICSKLQEIRNPVHAIGLLIREMDYETEVEMEKGFDPAQPLNVRMNLSQLYGSSTAGYIVCRGVYKIASTRFLICRDLLILQQLLTRLGDAVILGAGQLFQAQQDLLHRTAPLLLSYYLIKWASQCLATDVPVDTLESNLQHLSVLELTDSGALMANKLVSSPQTIMELFFQEVARKQIISHLFSQPKAPLSQTGLNWPEMITAVTGYLLQLLWPSNPGCLFLECLMGNCQYVQLQDYIQLLHPWCQVNVGSCRFMLGRCYLVTGEVQKALECFCQAASEVGKEEFLDRLIRSEDGEIVSTPKLQYYDKVLRLLDVVGLPELVIQLATSAITEAGDDWKSQATLRTCIFKHHLDLGHNSQAYEALTQIPDSSRQLDCLRQLVVVLCERSQLQDLVEFPYVNLHNEVVGIIESRARAVDLMTHNYYELLYAFHIYRHNYRKAGTVMFEYGMRLGREVRTLRGLEKQGNCYLAAINCLRLIRPEYAWIVQPASGAVSDRPGASPKRNHDGECTAAPTNRQIEILELEDLEKEYSLARIRLTLARHDPSVIAIAGSSSAKEMSALLVQAGLFDTAISLCQTFTLPLTPVFEGLAFKCIKLQFGGEAAQGEAWSWLATNQLSSVITTKESSATDEAWRLLSTYLERYKVQNNLYHHCVINKLLSHGVPLPNWLINSYKKVDAAELLRLYLNYDLLEEAVDLVSEYVDAVLGKGHQYFGIEFPLSATAPMVWLPYSSIDQLLQALGENSANSHNIILSQKILDKLEDYQQKVDKATRDLLYRRDL
3 | binds | binds | RAS Protein Activator Like 3 (RASAL3) (protein, UniProt Q8C2K5 1-1041) MKPECGQTMFRTFWSRSRDSSAMDPPLQSEEDSQTQPSLPSPLTSYRWHTGGSGEKAAGGFRWGRFAGWGRALSHQEPMVNSQPAPRSLFRRVLSAPPKESRSNRLRFSKTLWGRHKNVAPLEPKPNPKAPEPELELVADPDLPVAQIPEPPTPDMPVWNIDGFTLLEGKLVMLGEEEGPRQIRVGSASSENSMQAALGNLKDAVRTPGKTEPEAAGSNQVHNVRKLLKRLKEKKRAKSELGAYTPRDGPPSALGSRESLATLSELDLGAERDVRVWPLHPSLLGEPYCFQVTWAGGSLCFSCRSSAERDRWIEDLRRQFQPSQDNVERQEMWLTVWVHEAKGLPRATVPGVRAELWLDGALLARTAPRAGPGQLFWAERFHFEALPPARRLSLRLRSAGPAGATVGRVVLELDEVSIPRAPAAGLERWFPVLGAPAGAVLRARIRVRCLRVLPSERYKELAEFLTFHYARLCGALEPALSAQAKEELAAAMVRVLRATGRAQALVTDLGTAELARCGGREALLFRENTLATKAIDEYMKLVAQEYLQDTLGQVVRCLCASTEDCEVDPSKCPTPELPKHQARLRDSCEEVFENIIHSYNCFPAELGSVFSSWREACKARGSEALGPRLVCASLFLRLLCPAILAPSLFGLAPEHPAPGPARTLTLIAKVIQNLANCAPFGEKEAYMAFMNSFLEDHGPAMQHFLDQVATVDADTTPSGYQGSGDLALQLAVLHVQLCTIFAELDQKTQDSLEPLPTILRAIEEGRPVPVSVPMRLPRISTQVQSSFFSGEKPGFLAPRDLPKHTPLISKSQSLRSFQGAGSWASRRPDEERPQRRPRPVLRTQSVPARRPTHRRPSAGSKPRPKGSLRMGPAPCGRAWTRASASLPRKPSVPWQRQMDQPGDRYQTTGTHRPVGKLAEIQCEVAIFREAQKALSLLVESLSTQVQALKEQQEHFRCQLQDLYSRLGAGISKLDSKGGLPSNGSHRLKSLEQRLTEMECSQDQLRDSLQSLQLLSKTPGSRSQPLPLKAPCVNGADLSMGT
